# From the supplement of paper PMC4635364
# Some of the results follow. Repeats in this data set agree poorly, so a single value says little.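 Cells: ReNCell VM human fetal ventral-midbrain neural progenitors, differentiated mitogen-free. Blinded raters compared doublecortin-stained (early neurons) or tyrosine hydroxylase-stained (dopaminergic neurons) images with untreated wells, where 0 means no change. After repeats and both raters were averaged, compounds scoring 2 or above became hits for retesting.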 Where a SMILES comes first, the peptide text is derived from it. [ ]: non-standard residue; d: D form. The star is where a group is joined. Sta = CC(C)C[C@H](N)[C@@H](O)CC(=O)O; Isovaleryl = CC(C)CC(=O)*
# Tests used:
# ReNCell VM [1] = test: neuronal differentiation score (DCX+ cell fraction vs untreated, manual image score) (score (-3 to 3)); higher = more neuronal differentiation; conditions: 2 uM, 2 weeks
# ReNCell VM [2] = test: dopaminergic neuron differentiation score (TH+ cell fraction vs untreated, manual image score) (score (0 to 3)); higher = more TH+ dopaminergic neuron differentiation; conditions: 2 uM, 4 weeks, BDNF 10 ng/ml + GDNF 10 ng/ml
smiles,measurement,setting,value
CC(CCc1ccccc1)NCC(O)c1ccc(O)c(C(N)=O)c1 (stereo not drawn),neuronal differentiation score,ReNCell VM [1]; library: Spectrum,inactive: 0
same,dopaminergic neuron differentiation score,ReNCell VM [2]; library: Spectrum,inactive: 0
NC/C=C/C(=O)O [(E)-4-amino-2-butenoic acid],neuronal differentiation score,ReNCell VM [1]; library: LOPAC,inactive: 0
same,dopaminergic neuron differentiation score,ReNCell VM [2]; library: LOPAC,inactive: 0
C[C@]12C=CC(=O)C=C1CC[C@@H]1[C@@H]2[C@@H](O)C[C@@]2(C)[C@H]1CC[C@]2(O)C(=O)CO,neuronal differentiation score,ReNCell VM [1]; library: Spectrum,inactive: 0
same,dopaminergic neuron differentiation score,ReNCell VM [2]; library: Spectrum,inactive: 0
CC(C)CC(=O)N[C@H](C(=O)N[C@H](C(=O)N[C@@H](CC(C)C)[C@@H](O)CC(=O)N[C@@H](C)C(=O)N[C@@H](CC(C)C)[C@@H](O)CC(=O)O)C(C)C)C(C)C [Pepstatin A] (Isovaleryl-VV[Sta]A[Sta]-OH),neuronal differentiation score,ReNCell VM [1]; library: Prestwick,inactive: 0
same,dopaminergic neuron differentiation score,ReNCell VM [2]; library: Prestwick,inactive: 0
O=S(=O)(O)c1cc(I)c(O)c2ncccc12,neuronal differentiation score,ReNCell VM [1]; library: Spectrum,inactive: 0
same,dopaminergic neuron differentiation score,ReNCell VM [2]; library: Spectrum,inactive: 0
COc1cc2ncc(-c3ccccc3)nc2cc1OC [Tyrphostin AG 1296],neuronal differentiation score,ReNCell VM [1]; library: LOPAC,inactive: 0
same,dopaminergic neuron differentiation score,ReNCell VM [2]; library: LOPAC,inactive: 0
O=c1c(O)c(-c2ccc(O)c(O)c2)oc2c(O[C@@H]3O[C@H](CO)[C@@H](O)[C@H](O)[C@H]3O)c(O)cc(O)c12,neuronal differentiation score,ReNCell VM [1]; library: Spectrum,inactive: 0
same,dopaminergic neuron differentiation score,ReNCell VM [2]; library: Spectrum,inactive: 0
COC1=CC(=O)C[C@@H](C)[C@]12Oc1c(Cl)c(OC)cc(OC)c1C2=O [Griseofulvin],neuronal differentiation score,ReNCell VM [1]; library: Prestwick,inactive: 0
same,dopaminergic neuron differentiation score,ReNCell VM [2]; library: Prestwick,inactive: 0
O=C(OC[C@H]1O[C@@H](OC(=O)c2cc(O)c(O)c(OC(=O)c3cc(O)c(O)c(O)c3)c2)[C@H](OC(=O)c2cc(O)c(O)c(OC(=O)c3cc(O)c(O)c(O)c3)c2)[C@@H](OC(=O)c2cc(O)c(O)c(OC(=O)c3cc(O)c(O)c(O)c3)c2)[C@@H]1OC(=O)c1cc(O)c(O)c(OC(=O)c2cc(O)c(O)c(O)c2)c1)c1cc(O)c(O)c(OC(=O)c2cc(O)c(O)c(O)c2)c1,neuronal differentiation score,ReNCell VM [1]; library: Spectrum,inactive: 0
same,dopaminergic neuron differentiation score,ReNCell VM [2]; library: Spectrum,inactive: 0

# Shown tab-delimited: part of the list above
smiles	measurement	setting	value
COC1=CC(=O)C[C@@H](C)[C@]12Oc1c(Cl)c(OC)cc(OC)c1C2=O [Griseofulvin]	dopaminergic neuron differentiation score	ReNCell VM [2]; library: Prestwick	inactive: 0
O=C(OC[C@H]1O[C@@H](OC(=O)c2cc(O)c(O)c(OC(=O)c3cc(O)c(O)c(O)c3)c2)[C@H](OC(=O)c2cc(O)c(O)c(OC(=O)c3cc(O)c(O)c(O)c3)c2)[C@@H](OC(=O)c2cc(O)c(O)c(OC(=O)c3cc(O)c(O)c(O)c3)c2)[C@@H]1OC(=O)c1cc(O)c(O)c(OC(=O)c2cc(O)c(O)c(O)c2)c1)c1cc(O)c(O)c(OC(=O)c2cc(O)c(O)c(O)c2)c1	neuronal differentiation score	ReNCell VM [1]; library: Spectrum	inactive: 0
